According to patent US20150299277A1, “AGENT FOR TREATING OR PREVENTING SYSTEMIC INFLAMMATORY RESPONSE SYNDROME” (THE UNIVERSITY OF TOKYO, priority 2012, published 2015):
No constants are given. Whether binding was seen depends on the method and setting. Some binding calls cover weakened binding; strength is not graded here.

Protein sequences, listed by entry. Tags and fused reporters are not part of them. Lines headed by an entry give the natural chain unless they say otherwise; changes in a name come on top. Residues count along the entry.
UniProt P07305, residues 2-194: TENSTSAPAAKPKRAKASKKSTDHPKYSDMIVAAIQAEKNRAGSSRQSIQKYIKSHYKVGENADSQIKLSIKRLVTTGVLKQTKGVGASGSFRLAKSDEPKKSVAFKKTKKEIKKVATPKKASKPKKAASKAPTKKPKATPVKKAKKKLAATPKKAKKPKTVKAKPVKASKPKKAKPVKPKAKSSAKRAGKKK
UniProt P26022: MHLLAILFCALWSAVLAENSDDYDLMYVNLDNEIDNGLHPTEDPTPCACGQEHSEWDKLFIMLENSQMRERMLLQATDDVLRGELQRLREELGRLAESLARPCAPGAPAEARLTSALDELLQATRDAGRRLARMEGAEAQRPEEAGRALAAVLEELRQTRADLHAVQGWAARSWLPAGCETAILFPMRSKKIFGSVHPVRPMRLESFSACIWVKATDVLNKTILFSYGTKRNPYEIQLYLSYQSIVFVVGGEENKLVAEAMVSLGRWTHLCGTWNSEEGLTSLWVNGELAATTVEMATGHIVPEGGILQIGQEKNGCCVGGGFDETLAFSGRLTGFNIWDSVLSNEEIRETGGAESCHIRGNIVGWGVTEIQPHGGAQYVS

Columns and labels:
[1] = biological target: recombinant human histone H1 (human) (UniProt P07305); experiment: ELISA, histone immobilized, HRP-anti-His detection (FIG. 8A)
[2] = biological target: recombinant human histone H1 (human) (UniProt P07305); experiment: ELISA binding assay, histone immobilized, anti-Myc detection (FIG. 2B)
[3] = biological target: recombinant human histone H1 (human) (UniProt P07305); experiment: SPR, histone immobilized; affinity attenuated by EDTA/EGTA (FIGS. 9A and C)
[4] = biological target: recombinant human histone H1 (human) (UniProt P07305); experiment: ELISA binding assay and BIAcore SPR, histone immobilized (FIG. 1A)
[5] = biological target: recombinant human histone H1 (human) (UniProt P07305); experiment: ELISA, histone immobilized, HRP-anti-PTX3 PPZ1228 detection, with CaCl2 or EDTA (FIG. 4)
[6] = biological target: recombinant human histone H1 (human) (UniProt P07305); experiment: ELISA, histone immobilized, HRP-anti-His detection (FIG. 8B)
[7] = biological target: recombinant human histone H1 (human) (UniProt P07305); experiment: SPR, histone immobilized; affinity attenuated by EDTA/EGTA (FIGS. 9B and C)
[8] = biological target: recombinant human histone H1 (human) (UniProt P07305); experiment: ELISA, histone immobilized, HRP-anti-His detection

| Substance | binding [1] | binding [2] | binding [3] | further results |
| --- | --- | --- | --- | --- |
| Myc- and His-tagged N-terminal domain human PTX3 (animal cell expressed) (from UniProt P26022 18-178) | binds | binds | binds | – |
| tag-free full-length recombinant human PTX3 (from UniProt P26022 18-381) | – | – | – | binding [4]: binds; binding [5]: binds |
| Escherichia coli-expressed N-terminal domain human PTX3 wherein the 47th, 49th, 103rd cysteine residues were replaced with serine residue (from UniProt P26022 18-178) | – | – | – | binding [6]: binds; binding [7]: binds |

Now from value to substance, other results behind:

| binding [1] | binding [2] | binding [3] | Substance | further results |
| --- | --- | --- | --- | --- |
| binds | – | binds | Myc- and His-tagged full-length human PTX3 (from UniProt P26022 18-381) | – |
| – | binds | binds | Myc- and His-tagged C-terminal domain human PTX3 (animal cell expressed) (from UniProt P26022 179-381) | binding [8]: binds |
